No constants are given. Whether binding was seen depends on the method and setting. Some binding calls cover weakened binding; strength is not graded here.
Key:
Test in all cases: pull-down; both purified
[1] = target: GST-SUMO-1 (human (cDNA from BCBL-1 cells)) (UniProt P63165)
[2] = target: GST-SUMO-3 (human (cDNA from BCBL-1 cells)) (UniProt P55854)
[3] = target: GST-SUMO-2 (human (cDNA from BCBL-1 cells)) (UniProt P61956)

Protein sequences, listed by entry. Tags and fused reporters are not part of them. Residues count along the entry.
UniProt P63165, residues 1-97: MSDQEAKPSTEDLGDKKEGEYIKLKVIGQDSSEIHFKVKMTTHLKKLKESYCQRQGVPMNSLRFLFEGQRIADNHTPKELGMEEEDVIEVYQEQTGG
UniProt P55854, residues 1-92: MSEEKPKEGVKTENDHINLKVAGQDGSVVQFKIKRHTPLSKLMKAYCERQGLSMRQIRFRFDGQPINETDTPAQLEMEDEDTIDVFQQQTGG
UniProt P61956: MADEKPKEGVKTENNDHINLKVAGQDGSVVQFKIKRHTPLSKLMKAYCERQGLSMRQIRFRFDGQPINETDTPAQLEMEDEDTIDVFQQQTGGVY
UniProt F5HCV3: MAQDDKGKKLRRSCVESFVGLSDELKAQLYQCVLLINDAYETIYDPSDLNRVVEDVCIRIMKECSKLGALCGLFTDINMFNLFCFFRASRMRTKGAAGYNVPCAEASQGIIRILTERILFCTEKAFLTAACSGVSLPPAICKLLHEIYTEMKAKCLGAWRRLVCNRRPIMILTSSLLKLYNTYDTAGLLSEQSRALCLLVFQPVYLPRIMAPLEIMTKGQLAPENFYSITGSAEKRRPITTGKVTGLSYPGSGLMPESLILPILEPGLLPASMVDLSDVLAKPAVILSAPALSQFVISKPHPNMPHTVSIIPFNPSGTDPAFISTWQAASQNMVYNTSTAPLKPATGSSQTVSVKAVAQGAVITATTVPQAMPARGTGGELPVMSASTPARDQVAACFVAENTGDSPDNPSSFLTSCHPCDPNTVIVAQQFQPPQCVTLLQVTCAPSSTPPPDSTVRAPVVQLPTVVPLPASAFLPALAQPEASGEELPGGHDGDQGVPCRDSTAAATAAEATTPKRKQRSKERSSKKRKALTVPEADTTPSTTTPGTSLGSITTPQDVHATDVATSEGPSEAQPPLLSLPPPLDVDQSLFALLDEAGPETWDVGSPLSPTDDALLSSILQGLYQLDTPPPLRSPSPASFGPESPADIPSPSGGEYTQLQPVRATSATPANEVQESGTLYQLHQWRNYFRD

Flag-K-Rta (KSHV K-Rta, wild type) (from UniProt F5HCV3 1-691)
binding [1]: no binding | binding [2]: binds | binding [3]: binds

— publication PMC3749962
